PubChem BioAssay AID1259267 – Sanger Institute | 2017
The deposit covers 794 reagents; below is a random part of them. Over the whole deposit, 9 (1.1%) were called active. 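Viability capped at 1; calls reflect loss of viability from knock-down alone, not synergy with drugs.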 Not given: the amount of reagent, the time to read-out.

- Assay: 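Kinase and colorectal-mutated gene knock-downs lethal to GP5D cells alone or with drugs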 (primary screen)
- Cells: human GP5D colorectal cancer cells
- Reagent: siRNA pool against human genes
- Challenge: anchor drugs at low dose: BYL719 1 µM, cetuximab 5 µg/ml, trametinib 10 nM, or DMSO vehicle
- Detection: 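Mean replicate viability versus non-targeting pool, given as knock-down-alone robust z-score, DMSO fraction, and synergy with low-dose BYL719, cetuximab or trametinib (1 µM, 5 µg/ml, 10 nM)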
- Reading the numbers: robust z-score, knock-down alone and viability with DMSO: higher = more viable cells; synergy score with trametinib and synergy score with BYL719 and synergy score with cetuximab: higher = stronger synthetic lethal synergy with drug
- Active means: 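Active (essential alone) if knock-down without drug gives robust z-score under -3; drug synergy does not count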
- Meaning of the calls: active = essential alone; inactive = not essential

target gene,PubChem SID,"robust z-score, knock-down alone",viability with DMSO (fraction of control),synergy score with trametinib,synergy score with BYL719,synergy score with cetuximab,Call
RFK,SID152154046,0.817,1,-0.0123,-0.294,-0.142,inactive
GNE,SID56479101,0.817,1,0.102,-0.0433,-0.0927,inactive
TEX14,SID152148327,0.817,1,0.243,-0.197,-0.142,inactive
PIKFYVE,SID152154410,0.817,1,-0.0588,-0.306,-0.142,inactive
TSSK3,SID152155438,0.0342,0.834,0.185,-0.157,0.172,inactive
DDR1,SID152155868,-1.02,0.611,0.226,-0.0812,0.019,inactive
IKBKB,SID152150353,-0.897,0.637,0.22,0.0479,-0.0104,inactive
TCF7L2,SID251759863,0.817,1,-0.197,-0.361,-0.142,inactive
PIK3R2,SID135620607,0.817,1,-0.117,-0.13,-0.142,inactive
MAP3K20,SID152152597,-0.789,0.66,0.0925,-0.215,-0.0915,inactive
ELF3,SID135623079,-1.81,0.444,-0.22,-0.321,-0.00456,inactive
OXSR1,SID152151868,-0.109,0.804,0.217,-0.0714,0.211,inactive
ADCK1,SID135620966,-0.00346,0.826,-0.0596,-0.1,-0.0905,inactive
PTPRU,SID152150387,-1.08,0.599,0.0401,-0.201,-0.0866,inactive
DGKA,SID152151940,-0.876,0.641,-0.0737,-0.124,-0.0808,inactive
SGK3,SID56478777,0.817,1,0.106,-0.143,-0.0578,inactive
PRKCD,SID56478673,0.0519,0.838,0.101,0.00503,0.127,inactive
KCNH2,SID135621164,-2.02,0.398,0.0781,-0.0901,-0.0242,inactive
ITSN1,SID135621555,-0.865,0.644,0.166,-0.0739,-0.0558,inactive
PPP2R1A,SID135621908,-1.92,0.419,-0.141,-0.321,-0.26,inactive
TJP2,SID135621862,-0.207,0.783,-0.186,-0.22,-0.28,inactive
PRKAB1,SID134312708,-0.94,0.628,-0.318,-0.122,-0.0948,inactive
ABL1,SID135620610,0.817,1,-0.0197,-0.361,-0.0414,inactive
PDPK1,SID135620604,0.0941,0.847,0.154,0.00237,-0.217,inactive
STK32A,SID152151517,0.817,1,-0.197,-0.168,-0.142,inactive
MAPK10,SID56478791,0.817,1,-0.197,-0.243,-0.142,inactive
TBK1,SID56478726,-1.48,0.513,-0.217,-0.342,-0.271,inactive
MAP3K19,SID135620896,0.798,0.996,-0.0314,-0.0145,0.114,inactive
PIP4K2C,SID56478804,0.347,0.9,0.244,0.0934,0.154,inactive
DYRK1B,SID56478878,-1.98,0.408,-0.0436,-0.41,-0.093,inactive
VRK2,SID152152279,0.817,1,0.153,-0.0271,-0.0167,inactive
KDR,SID56478526,0.817,1,-0.0358,-0.232,-0.142,inactive
FXR1,SID152147249,0.563,0.946,-0.126,-0.118,-0.188,inactive
TAF1,SID56478970,-0.275,0.768,-0.201,-0.3,-0.153,inactive
PIK3C2G,SID152155956,-0.48,0.725,-0.134,-0.0213,-0.153,inactive
RPS6KA3,SID152150758,0.817,1,-0.197,-0.29,-0.142,inactive
MAP4K4,SID56478747,0.751,0.986,-0.0904,-0.14,-0.154,inactive
TNK1,SID152152407,0.729,0.981,0.0917,-0.207,-0.158,inactive
ACVR2B,SID135620907,-1.32,0.547,-0.273,-0.367,-0.353,inactive
MTOR,SID135620602,0.817,1,0.0881,0.0135,0.00469,inactive
PIK3R3,SID56479284,0.817,1,-0.0762,0.0151,-0.142,inactive
ITPKA,SID152154114,0.817,1,0.0172,-0.222,-0.142,inactive
TCF12,SID134311750,-0.415,0.739,-0.0152,-0.15,-0.133,inactive
RPS6KA2,SID135620862,-2.16,0.369,0.00957,-0.0789,-0.0918,inactive
PANK3,SID56479122,0.817,1,0.0259,-0.342,-0.113,inactive
VRK1,SID152147475,-1.33,0.545,0.021,-0.136,0.0807,inactive
CASP8,SID135620682,0.817,1,-0.197,-0.361,-0.142,inactive
NME5,SID56479119,0.817,1,0.237,-0.0989,0.0531,inactive
PDGFRA,SID135620628,0.817,1,0.276,0.0127,-0.0824,inactive
MERTK,SID135620626,-0.917,0.633,-0.00565,-0.183,0.0113,inactive
BRSK2,SID152155603,0.817,1,0.0184,-0.169,-0.142,inactive
PIP4K2A,SID135621253,0.817,1,-0.197,-0.168,-0.142,inactive
FBXW7,SID152153107,0.817,1,0.356,-0.32,-0.00145,inactive
NRBP1,SID135620974,0.817,1,0.000282,-0.132,-0.142,inactive
BRSK1,SID135620852,-0.0389,0.819,0.0699,-0.132,-0.0278,inactive
PRP4K,SID152152780,-0.89,0.638,-0.163,-0.325,0.0615,inactive
CDK3,SID56478597,0.817,1,0.352,0.00409,0.151,inactive
FCSK,SID152149608,0.817,1,0.018,-0.275,-0.142,inactive
CTNNB1,SID134309920,-0.288,0.766,-0.317,-0.168,-0.181,inactive
RPS6KB2,SID152153683,-1.49,0.511,0.0379,-0.136,0.0157,inactive
XYLB,SID152153831,0.817,1,0.0741,-0.0788,-0.142,inactive
KSR2,SID152149204,-0.13,0.799,-0.0725,-0.164,-0.12,inactive
NR2F2,SID134309873,0.54,0.941,0.289,0.119,0.0173,inactive

5 entries already listed, ordered by “synergy score with BYL719”, ascending:
target gene,PubChem SID,"robust z-score, knock-down alone",viability with DMSO (fraction of control),synergy score with trametinib,synergy score with BYL719,synergy score with cetuximab,Call
PANK3,SID56479122,0.817,1,0.0259,-0.342,-0.113,inactive
ITPKA,SID152154114,0.817,1,0.0172,-0.222,-0.142,inactive
TCF12,SID134311750,-0.415,0.739,-0.0152,-0.15,-0.133,inactive
RPS6KA2,SID135620862,-2.16,0.369,0.00957,-0.0789,-0.0918,inactive
PIK3R3,SID56479284,0.817,1,-0.0762,0.0151,-0.142,inactive
